The text below walks through data of PubChem BioAssay AID2685 (National Center for Advancing Translational Sciences (NCATS), 2010).

The assay can be described thus: qHTS Assay for Lipid Storage Modulators in Drosophila S3 Cells.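 For cell number change: cells counted by Cell Tracker Red CMTPX staining in the red channel.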 As to conditions: BODIPY lipid droplet fluorescence, 18-24 h; for cell number change: measured here: cell count max response, cells fed with added oleic acid. In a few lines:
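Drosophila S3 cells got compounds at several concentrations plus oleic acid (400 uM solution). Laser-scanning cytometry with 488 nm excitation read lipid droplets at 500-530 nm and cells at 575-640 nm. Percent activity was relative to 20 uM Triacsin C.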

[1] abbreviates: measured here: lipid fluorescence (Fed channel) AC50, cells fed with added oleic acid.
Setting [2] is: measured here: cell number channel AC50, cells fed with added oleic acid.

The list shows a part of the results. The main result of the screen is listed elsewhere. These columns were measured beside it and carry no call. Most of these compounds were active or inconclusive in the main read-out, so they are no random draw. The note in brackets gives the kind of curve behind each potency; many fits are weak.

For `O=Nc1c(O)n(Cc2cccc(Cl)c2)c2ccccc12`, the cell number change is -2.53%. Further, under setting [1], the AC50 (as a rule, the midpoint of the concentration-response curve, whichever way the signal moves) was 4.61 µM [rising, partial curve, poor fit].
For `COc1ccc(S(=O)(=O)N2CCCCC2)cc1NC(=O)C1CSC2(C)CCC(=O)N12` (stereo not drawn), the cell number change is -10.5%. Further, the AC50 under setting [1] is 29.1 µM [falling, single point].
In the case of `CC(C)OC(=O)CCc1nc2ccccc2[nH]c1=O`, the cell number change is -3.68%. Under setting [2], the AC50 was 2.06 µM [falling, partial curve].
Take `Cc1ccc(OCC(=O)N2CCN(C(=O)c3cccc(F)c3)CC2)cc1`: the cell number change came out at 90.1%. Besides, the AC50 under setting [2] was 29.1 µM [rising, single point].
On to `O=C(COC(=O)c1ccc(F)cc1Cl)Nc1cccc(S(=O)(=O)N2CCOCC2)c1`, for which the cell number change was 20.1%. Also, under setting [1], the AC50 is 29.1 µM [falling, single point].
With `Cc1ccc(-c2csc3ncnc(SCC(=O)c4ccc5c(c4)OCCO5)c23)cc1`, the AC50 under setting [1] was 0.58 µM [falling, full curve].
For `Clc1ccc(-c2nc(/C=N/N3CCOCC3)c3ccccn23)cc1`, the cell number change was -42.1%. In addition, the AC50 under setting [2] was 29.1 µM [falling, single point].
Regarding `C/C(=N\N1CCN(c2ccccc2)CC1)c1ccccc1O`, the cell number change turned out to be 12.4%. Besides, under setting [1], the AC50 was 29.1 µM [rising, single point].
As for `CC1CCC(C(C)C)C(OC(=O)Cn2c(-c3ccc(Cl)cc3)[n+](C)c3ccccc32)C1` (stereo not drawn), the cell number change was -62.6%. For the same molecule, the AC50 under setting [2] was 8.2 µM [falling, partial curve, poor fit]. For the same molecule, the AC50 under setting [1] was 6.51 µM [falling, partial curve].
Take `O=C(c1noc2c1CCCC2)N1CCN(c2ccc(F)cc2)CC1`: the cell number change is -0.133%.
Regarding `CCC(=O)N=C1SC2CS(=O)(=O)CC2N1c1cccc(OC)c1` (stereo not drawn), the cell number change was -19.1%. Also, the AC50 under setting [1] is 0.146 µM [falling, full curve].
Consider `Cc1ccc(NC2CCCN(C(=O)CSc3ccccn3)C2)cc1C` (stereo not drawn), for which the cell number change was determined as 12.5%. The AC50 under setting [1] was 29.1 µM [rising, single point].
Turning to `COc1ccc(CCNC(=O)COC(=O)C2CC2)cc1`, the cell number change was -78.5%.
Consider `CC1CCN(c2ccccc2NC(=O)c2cc([N+](=O)[O-])ccc2N2CCOCC2)CC1`, for which the cell number change is -35.4%. Further, the AC50 under setting [2] was 23.1 µM [falling, partial curve].
In the case of `COc1ccc(CC(=O)NCc2nc(-c3ccccc3)no2)cc1`, the cell number change came to 19.3%. Also, under setting [2], the AC50 was 6.51 µM [falling, single point]. Moreover, the AC50 under setting [1] is 6.51 µM [falling, single point].
On to `COc1ccccc1C(=O)COC(=O)CCNS(=O)(=O)c1ccc(C)c(C)c1`, for which the cell number change was -42.7%. Moreover, the AC50 under setting [2] was 29.1 µM [falling, single point]. Besides, under setting [1], the AC50 was 14.6 µM [rising, partial curve].
Regarding `CCSc1nnc(NC(=O)NC2CCCCC2)s1`, the cell number change was -53.9%. Also, the AC50 under setting [2] was 0.82 µM [falling, full curve, poor fit]. Moreover, the AC50 under setting [1] is 4.61 µM [falling, full curve].
`COc1cccc(C(C(=O)NC2CCCC2)N(CC2CCCO2)C(=O)Cc2cccs2)c1` (stereo not drawn): the cell number change is -24%. Also, the AC50 under setting [1] was 11.6 µM [falling, partial curve].
Consider `CCOC(=O)CN1C(=O)COc2ccc(Cl)cc21`, for which the cell number change was -40.1%.
Turning to `CCO[C@@H]1OC(C(=O)N2CCN(Cc3ccc4c(c3)OCO4)CC2)=C[C@H](C2CCCCC2)[C@H]1CCCO`, the cell number change was -34.4%. Also, the half-maximal activity concentration (AC50) under setting [2] was 23.1 µM [falling, single point]. In addition, under setting [1], the AC50 is 20.6 µM [falling, partial curve].
As for `CCN(CC)C(=O)COc1ccc(N(C)S(=O)(=O)c2ccc(NC(C)=O)cc2)cc1`, the cell number change worked out at 1.28%. Further, the AC50 under setting [1] was 0.58 µM [rising, single point].
For `CCOC(=O)N=Nc1c2ccccc2c2nc3no[nH]c3nc12`, the cell number change was -17.6%. In addition, the AC50 under setting [2] was 6.51 µM [falling, single point]. The concentration at half-maximal activity (AC50) under setting [1] was 2.06 µM [falling, full curve].
In the case of `CC(=O)c1ccc(NC(=S)NN2C(C)CCCC2C)cc1` (stereo not drawn), the cell number change came out at 52.2%. For the same molecule, the AC50 under setting [2] was 1.03 µM [rising, full curve, poor fit]. The AC50 under setting [1] is 0.651 µM [rising, full curve, poor fit].
`COc1cccc(OCC(=O)NN=C2c3ccccc3-c3ccccc32)c1`: the cell number change was determined as 5.46%.
In the case of `CC1=CCC2COC(c3ccc[n+](Cc4ccccc4)c3)C1C2` (stereo not drawn), the cell number change was 7.04%. Further, the AC50 under setting [1] was 2.59 µM [rising, single point].
In the case of `CCN(Cc1ccccc1)C(=O)c1cc(-c2ccc(OC)c(OC)c2)nc2ccccc12`, the cell number change worked out at 15.1%. Besides, the AC50 under setting [1] is 18.4 µM [falling, single point].
On to `COC(=O)C1=C(C)N=C2SC(C#N)=C(N)N2C1c1ccc(OCc2ccccc2)cc1` (stereo not drawn), for which the cell number change was 6.18%. Under setting [1], the AC50 is 0.731 µM [rising, full curve].
As for `O=C(COC(=O)COc1ccc(Cl)cc1)NCCNC(=O)COC(=O)COc1ccc(Cl)cc1`, the cell number change was -10.3%. Besides, the AC50 under setting [1] was 0.461 µM [falling, full curve, poor fit].
Turning to `CN(Cc1nccn1C)C(=O)c1ccc(OC2CCN(CCc3ccccc3)CC2)cc1`, the cell number change is -10.2%. In addition, under setting [2], the AC50 was 1.84 µM [falling, partial curve].
In the case of `Cc1cc(C)c(Cn2c3ccccc3c3cnn(CC(=O)NCCN4CCOCC4)c(=O)c32)c(C)c1`, the AC50 under setting [1] is 6.51 µM [rising, partial curve].
With `CC[n+]1c(/C=C/c2c[nH]c3ccccc23)ccc2cc(C)ccc21`, the cell number change was -93.8%. Under setting [2], the AC50 is 6.51 µM [falling, full curve].
As to `O=C(Nc1ccc2ccccc2c1)c1ccccc1O`, the cell number change stood at 5.56%.
Consider `N#Cc1nc(-c2ccc(OCc3ccc(Cl)cc3)cc2)oc1N1CCC(C(N)=O)CC1`, for which the cell number change was determined as 7.22%. Moreover, under setting [1], the AC50 is 0.00517 µM [falling, full curve, poor fit].
With `CCCOc1ccc(OCC(=O)c2[nH]c(C)c(C(C)=O)c2C)cc1`, the cell number change was found to be 4.05%.
Consider `CC(C)C(=O)N1CCN(c2ccc(NC(=O)COc3ccccc3[N+](=O)[O-])cc2)CC1`, for which the cell number change was -47.1%. Besides, the AC50 under setting [2] was 29.1 µM [falling, single point].
In the case of `N#CCCN(CCC#N)C(=S)NC1CC2C=CC1C2` (stereo not drawn), the cell number change is -42.3%. Further, the half-maximal activity concentration (AC50) under setting [2] is 13 µM [falling, partial curve]. The AC50 under setting [1] is 16.4 µM [falling, single point].
As to `COc1ccc(-n2c(SCC#N)nnc2-c2cccnc2)cc1`, the half-maximal activity concentration (AC50) under setting [1] is 2.91 µM [rising, partial curve].
Take `CC1(c2ccccc2)NC(=O)N(CC(=O)N2CCN(S(=O)(=O)c3cccs3)CC2)C1=O` (stereo not drawn): the cell number change came to 10.5%.
Regarding `COC(=O)C1=C(C)C(c2ccc(OC)cc2OC)NC(=O)N1` (stereo not drawn), the cell number change turned out to be 4.95%. Further, the AC50 under setting [1] was 6.51 µM [rising, single point].
`O=C(c1cc(F)ccc1F)C1CCCN(Cc2cccn2-c2ccccn2)C1` (stereo not drawn): the cell number change was determined as 26.1%. Also, the AC50 under setting [1] was 25.9 µM [rising, single point].
For the molecule `CCOc1cc(C(=O)NN=C2CCCC2)cc(OCC)c1OCC`, the cell number change is -4.46%.
Same read-out and setting: then `O=C(Cn1nc(Cl)nc1Cl)c1ccc2c(c1)OCCO2`, with -6.88%.
In the case of `Cc1nc(C#N)c(N/N=C/c2c(F)cccc2Cl)o1`, the cell number change was -5.38%. Moreover, the AC50 under setting [1] is 2.31 µM [falling, single point].
Consider `CCCCC(=O)Nc1ccc(C(=O)N2CCCC(C(=O)OCC)C2)cc1` (stereo not drawn), for which the AC50 under setting [1] is 6.51 µM [rising, single point].
For the molecule `Cc1c(C(=O)N2CCOCC2)c(S(=O)(=O)Nc2ccc(OC(F)(F)F)cc2)c(C)n1C`, the cell number change was -17.4%. The AC50 under setting [1] was 1.3 µM [falling, full curve].
In the case of `COc1cccc(CN(C)C(=O)CN2C(=O)NC3(CCCc4ccccc43)C2=O)c1` (stereo not drawn), the cell number change was -31.1%. Moreover, the AC50 under setting [2] was 29.1 µM [falling, single point].
Regarding `CN(Cc1c(C(=O)N/N=C/c2ccc(O)cc2)nnn1-c1nonc1N)C1CCCCC1`, the cell number change was 93.5%. For the same molecule, the half-maximal activity concentration (AC50) under setting [2] was 29.1 µM [rising, single point].
On to `COc1ccc2c(c1OC)C(=O)N(c1cccc(NC(C)=O)c1)C2`, for which the cell number change is 4.63%. In addition, under setting [1], the AC50 is 2.31 µM [rising, partial curve].
Regarding `Cc1ccnc(N/N=C/c2ccco2)n1`, the cell number change is -0.826%. For the same molecule, the AC50 under setting [1] was 3.26 µM [rising, single point].
On to `Cc1nn(C)cc1CNC(=O)C1CCC(=O)N(CC2CCCCC2)C1` (stereo not drawn), for which the cell number change came to 13.7%.
Regarding `CCOc1ccc(NS(=O)(=O)c2ccc(C(=O)NCCN3CCOCC3)cc2)cc1`, the cell number change is -13.6%. Moreover, the AC50 under setting [1] was 0.82 µM [falling, full curve, poor fit].
For the molecule `O=C(O)COc1cccc(NC(=O)c2ccccc2)c1`, the cell number change was found to be 3.73%. For the same molecule, the AC50 under setting [1] is 0.0146 µM [falling, full curve, poor fit].
`Cc1nn(-c2ccccc2)c(Cl)c1/C=N/NC(=O)c1ccc(CNc2ccccc2)o1`: the cell number change was -26.8%. Moreover, the AC50 under setting [2] is 0.00517 µM [rising, full curve, poor fit]. Moreover, the AC50 under setting [1] was 6.51 µM [rising, partial curve, poor fit].
For `Cc1cc(Br)cc(C)c1OCC(=O)NNC(=O)c1cccs1`, the cell number change was -30.4%. For the same molecule, the AC50 under setting [1] was 25.9 µM [falling, single point].
Take `CCC(C)CN1CCC(CO)(Cc2ccccc2Cl)CC1` (stereo not drawn): the cell number change was -49%. For the same molecule, under setting [2], the concentration at half-maximal activity (AC50) was 29.1 µM [falling, single point].
Consider `CC1CN(Cc2nc3c(c(=O)[nH]c(=O)n3C)n2CC(N)=O)CC(C)O1` (stereo not drawn), for which the cell number change turned out to be 20%. Further, under setting [1], the concentration at half-maximal activity (AC50) is 1.64 µM [rising, partial curve, poor fit].
Consider `O=C(CSc1nnc(NC(=O)c2ccco2)s1)NC1CCCCC1`, for which the cell number change was -18.8%. Moreover, the half-maximal activity concentration (AC50) under setting [1] is 2.59 µM [falling, partial curve].
`CS(=O)(=O)N1CCC(C(=O)Nc2ccc(Cl)cc2)CC1`: the cell number change was -17.5%.
As to `COc1cccc(CNC(=O)CCC2CCCN(C(=O)c3ccccc3N(C)C)C2)c1` (stereo not drawn), the cell number change is -5.28%. Besides, the half-maximal activity concentration (AC50) under setting [1] is 29.1 µM [falling, single point].
As for `Cc1ccc(C(=O)CN(C(=O)c2ccc(Cl)cc2)N2C(=O)CCC2=O)cc1`, the cell number change is -27.6%. For the same molecule, the AC50 under setting [2] is 0.092 µM [falling, full curve]. Under setting [1], the AC50 was 0.13 µM [falling, full curve, poor fit].
Regarding `Cc1nnc(SCC(=O)NCC2CCCCC2)n(N)c1=O`, the cell number change was determined as 46.9%. The AC50 under setting [2] was 6.51 µM [rising, full curve]. Also, the AC50 under setting [1] is 16.4 µM [rising, single point].
